Assay [1] concerns the target endogenous IQGAP1 (human (endogenous in MDA-MB-231 and UM-SCC47)) (UniProt P46940). As to the kind of experiment: proximity ligation; endogenous IQGAP1 and EGFR in MDA-MB-231 cells, starved 24 h, with or without 10 ng/ml EGF 15 min, fixed.
Assay [2] has the same target. The experiment in a line: co-IP; endogenous proteins, MDA-MB-231 whole cell lysates, starved 24 h, with or without 10 ng/ml EGF 15 min; anti-IQGAP1 antibody on Protein A/G agarose beads.
Assay [3] concerns the target Myc-tagged wild-type IQGAP1 (IQ motif-containing GTPase-activating protein 1) (UniProt P46940). The experiment in a line: co-IP; Myc-tagged IQGAP1 WT or ΔIQ3 transfected in HEK293FT (Fig. 3a, Supplementary Fig. 6a) or UM-SCC47 (Fig. 4d) cells, starved 24 h, with or without 10 ng/ml EGF 15 min; lysis in 25 mM Tris-HCl pH 7.4, 150 mM NaCl, 1 mM EDTA, 1% NP-40, 5% glycerol; anti-c-Myc agarose 2 h at 4 °C; endogenous partners by blot.

By UniProt entry, the sequences of proteins in these tests, tags left out.
UniProt Q99755: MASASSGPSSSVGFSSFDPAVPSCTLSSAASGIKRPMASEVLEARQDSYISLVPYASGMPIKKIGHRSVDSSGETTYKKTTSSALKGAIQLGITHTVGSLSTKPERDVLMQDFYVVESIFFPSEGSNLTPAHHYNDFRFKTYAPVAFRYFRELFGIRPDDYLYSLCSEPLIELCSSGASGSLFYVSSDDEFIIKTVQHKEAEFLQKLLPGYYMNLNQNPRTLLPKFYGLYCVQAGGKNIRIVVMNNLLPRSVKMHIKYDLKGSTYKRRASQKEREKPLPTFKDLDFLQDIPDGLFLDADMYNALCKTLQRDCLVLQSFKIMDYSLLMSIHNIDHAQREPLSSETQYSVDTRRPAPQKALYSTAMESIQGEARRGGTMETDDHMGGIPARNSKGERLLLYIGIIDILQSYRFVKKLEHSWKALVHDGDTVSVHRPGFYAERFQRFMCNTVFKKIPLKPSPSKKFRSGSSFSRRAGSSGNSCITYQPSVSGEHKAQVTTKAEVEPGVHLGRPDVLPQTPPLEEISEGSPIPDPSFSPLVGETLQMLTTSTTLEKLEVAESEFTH
UniProt P27986: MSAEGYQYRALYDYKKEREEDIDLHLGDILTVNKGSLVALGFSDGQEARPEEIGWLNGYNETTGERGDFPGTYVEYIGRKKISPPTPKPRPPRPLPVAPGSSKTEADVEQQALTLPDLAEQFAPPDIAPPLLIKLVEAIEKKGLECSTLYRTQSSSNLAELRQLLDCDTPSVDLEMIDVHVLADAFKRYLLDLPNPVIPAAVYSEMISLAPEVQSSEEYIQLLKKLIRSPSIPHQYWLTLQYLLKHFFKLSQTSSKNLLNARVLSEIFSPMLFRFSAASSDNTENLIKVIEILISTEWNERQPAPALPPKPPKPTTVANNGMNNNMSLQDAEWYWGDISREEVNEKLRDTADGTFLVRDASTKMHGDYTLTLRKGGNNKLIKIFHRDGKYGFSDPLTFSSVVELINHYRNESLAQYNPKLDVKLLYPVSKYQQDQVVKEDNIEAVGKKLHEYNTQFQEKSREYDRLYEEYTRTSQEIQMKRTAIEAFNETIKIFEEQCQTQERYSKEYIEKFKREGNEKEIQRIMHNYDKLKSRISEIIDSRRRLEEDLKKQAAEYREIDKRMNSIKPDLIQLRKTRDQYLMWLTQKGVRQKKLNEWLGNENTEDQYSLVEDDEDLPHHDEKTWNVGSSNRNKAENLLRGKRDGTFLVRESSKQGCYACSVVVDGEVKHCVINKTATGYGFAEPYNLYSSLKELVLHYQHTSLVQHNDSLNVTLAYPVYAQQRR

Assay [4] shares this target. As to the kind of experiment: proximity ligation; UM-SCC47/HEK293FT cells transfected with Myc-tagged IQGAP1 WT or ΔIQ3, starved 24 h, with or without 10 ng/ml EGF 15 min, fixed in 4% PFA; Duolink in situ kit; Myc tag against the endogenous partner.
Assay [5] concerns the target endogenous IQGAP1 (human (endogenous in MDA-MB-231 and UM-SCC47)) (UniProt P46940). The experiment in a line: proximity ligation; endogenous IQGAP1 with EGFR, p85α or PIPKIα in UM-SCC47 cells starved 24 h, with or without 30 μM IQ3 peptide for 3 h, then 10 ng/ml EGF 15 min, fixed.
Assay [6] has the same target. As to the kind of experiment: proximity ligation; as a5, the sample treated with 30 μM IQ3 peptide for 3 h before 10 ng/ml EGF 15 min.
In assay [7] the target is Myc-tagged wild-type IQGAP1 (IQ motif-containing GTPase-activating protein 1) (UniProt P46940). As to the kind of experiment: co-IP; Myc-tagged IQGAP1 WT or ΔIQ3 transfected in HEK293FT (Fig. 3a, Supplementary Fig. 6a) or UM-SCC47 (Fig. 4d) cells, starved 24 h, with or without 10 ng/ml EGF 15 min; lysis in 25 mM Tris-HCl pH 7.4, 150 mM NaCl, 1 mM EDTA, 1% NP-40, 5% glycerol; anti-c-Myc agarose 2 h at 4 °C; endogenous partners by blot. The source holds these as a separate data set.

Assay [8] deals with PIPKIα (PIP5K1A) (human (endogenous in HEK293FT and UM-SCC47)) (UniProt Q99755). As to the kind of experiment: proximity ligation; synthetic IQ3 peptide (30 μM, 3 h) added to starved UM-SCC47 cells, then 10 ng/ml EGF 15 min; displacement read as loss of the PLA signal of endogenous IQGAP1 with PIPKIα or p85α; only the binder purified.
In assay [9] the target is p85α regulatory subunit of PI3K (human (endogenous in HEK293FT and UM-SCC47)) (UniProt P27986). The assay is described as above.

No constants are given. Whether binding was seen depends on the method and setting. Binding seen in cells or lysates may run through a third protein. Some binding calls cover weakened binding; strength is not graded here.

As for “Epidermal growth factor receptor (EGFR) (from UniProt P00533 25-1210)”, the binding entry in assay [1], in assay [2], in [3], in assay [4] and in [5] was “binds” each time.

Consider “PIPKIα (PIP5K1A) (from UniProt Q99755 1-562) (enzyme)”, for which the binding result is given as “binds” in assay [3], “binds” in assay [4], “binds” in assay [5] and “no binding (condition: with 30 μM IQ3 peptide)” in assay [6].

“p85α regulatory subunit of PI3K (from UniProt P27986 1-724)”: the binding entry in assay [3], in assay [4] and in assay [5] was “binds” each time.

B1: PDK1 (enzyme, UniProt O15530 1-556)
chain: MARTTSQLYDAVPIQSSVVLCSCPSPSMVRTQTESSTPPGIPGGSRQGPAMDGTAAEPRPGAGSLQHAQPPPQPRKKRPEDFKFGKILGEGSFSTVVLARELATSREYAIKILEKRHIIKENKVPYVTRERDVMSRLDHPFFVKLYFTFQDDEKLYFGLSYAKNGELLKYIRKIGSFDETCTRFYTAEIVSALEYLHGKGIIHRDLKPENILLNEDMHIQITDFGTAKVLSPESKQARANSFVGTAQYVSPELLTEKSACKSSDLWALGCIIYQLVAGLPPFRAGNEYLIFQKIIKLEYDFPEKFFPKARDLVEKLLVLDATKRLGCEEMEGYGPLKAHPFFESVTWENLHQQTPPKLTAYLPAMSEDDEDCYGNYDNLLSQFGCMQVSSSSSSHSLSASDTGLPQRSGSNIEQYIHDLDSNSFELDLQFSEDEKRLLLEKQAGGNPWHQFVENNLILKMGPVDKRKGLFARRRQLLLTEGPHLYYVDPVNKVLKGEIPWSQELRPEAKNFKTFFVHTPNRTYYLMDPSGNAHKWCRKIQEVWRQRYQSHPDAAVQ
B1: the binding result in assay [7] is recorded as “binds”.

On to RRRRRRRREQKLISEEDLEVVKIQSLARMHQARKRYRD (the eight N-terminal arginines are D-residues ((dR) x 8)) [membrane penetrating IQ3 peptide], for which the binding result in assay [8] and in assay [9] was “binds” throughout.

These data come from PMC6591252.
